Patent US20200262889A1
These are yes or no findings as the source states them, for the method shown. Binding seen in cells or lysates may run through a third protein. Some binding calls cover weakened binding; strength is not graded here.

How the values were obtained:
[1] = target: T1, human NaDC-1 (Solute carrier family 13 member 2, Slc13a2), wild type (human) (UniProt Q13183); test: co-immunoprecipitation of WT NaDC-1 with WT slc26a6
T1 sequence (looked up): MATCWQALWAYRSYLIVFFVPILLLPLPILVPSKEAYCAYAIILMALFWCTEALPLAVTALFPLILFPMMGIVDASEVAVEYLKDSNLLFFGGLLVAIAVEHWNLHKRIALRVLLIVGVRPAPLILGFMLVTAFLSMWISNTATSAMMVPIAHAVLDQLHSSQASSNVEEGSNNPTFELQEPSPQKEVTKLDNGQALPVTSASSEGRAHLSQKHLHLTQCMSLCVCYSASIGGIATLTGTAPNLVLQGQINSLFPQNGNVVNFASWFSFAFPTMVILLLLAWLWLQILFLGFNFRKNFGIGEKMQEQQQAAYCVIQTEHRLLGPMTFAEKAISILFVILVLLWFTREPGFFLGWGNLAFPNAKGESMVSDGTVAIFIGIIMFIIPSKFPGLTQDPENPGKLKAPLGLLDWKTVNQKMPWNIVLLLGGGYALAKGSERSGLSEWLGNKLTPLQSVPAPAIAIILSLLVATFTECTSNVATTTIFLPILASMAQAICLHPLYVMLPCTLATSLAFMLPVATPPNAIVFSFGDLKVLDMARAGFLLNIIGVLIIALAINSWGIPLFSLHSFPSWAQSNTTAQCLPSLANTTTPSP

[2] = target: T1, human NaDC-1 (Solute carrier family 13 member 2, Slc13a2), wild type (human); test: co-immunoprecipitation of WT hNaDC-1 and WT hSLC26a6

B1: mouse slc26a6 (solute carrier family 26 member 6), wild type (protein, not shown: small tags and cut ends)
chain: MELQRRDYHVERPLLNQEQLEDLGHWGPAAKTHQWRTWFRCSRARAHSLLLQHVPVLGWLPRYPVREWLLGDLLSGLSVAIMQLPQGLAYALLAGLPPMFGLYSSFYPVFIYFLFGTSRHISVGTFAVMSVMVGSVTESLTADKAFVQGLNATADDARVQVAYTLSFLVGLFQVGLGLVHFGFVVTYLSEPLVRSYTTAASVQVLVSQLKYVFGIKLSSHSGPLSVIYTVLEVCAQLPETVPGTVVTAIVAGVALVLVKLLNEKLHRRLPLPIPGELLTLIGATGISYGVKLNDRFKVDVVGNITTGLIPPVAPKTELFATLVGNAFAIAVVGFAIAISLGKIFALRHGYRVDSNQELVALGLSNLIGGFFQCFPVSCSMSRSLVQESTGGNTQVAGAVSSLFILLIIVKLGELFRDLPKAVLAAVIIVNLKGMMKQFSDICSLWKANRVDLLIWLVTFVATILLNLDIGLAVSIVFSLLLVVVRMQLPHYSVLGQVPDTDIYRDVAEYSGAKEVPGVKVFRSSATLYFANAELYSDSLKEKCGVDVDRLITQKKKRIKKQEMKLKRMKKAKKSQKQDASSKISSVSVNVNTNLEDVKSNDVEGSEAKVHQGEELQDVVSSNQEDAKAPTMTSLKSLGLPQPGFHSLILDLSTLSFVDTVCIKSLKNIFRDFREIEVEVYIAACYSPVVAQLEAGHFFDESITKQHVFASVHDAVTFALSHRKSVPKSPVLATKL
binding [1]: binds

B2: human SLC26A6, wild type (protein)
chain: MGLADASGPRDTQALLSATQAMDLRRRDYHMERPLLNQEHLEELGRWGSAPRTHQWRTWLQCSRARAYALLLQHLPVLVWLPRYPVRDWLLGDLLSGLSVAIMQLPQGLAYALLAGLPPVFGLYSSFYPVFIYFLFGTSRHISVGTFAVMSVMVGSVTESLAPQALNDSMINETARDAARVQVASTLSVLVGLFQVGLGLIHFGFVVTYLSEPLVRGYTTAAAVQVFVSQLKYVFGLHLSSHSGPLSLIYTVLEVCWKLPQSKVGTVVTAAVAGVVLVVVKLLNDKLQQQLPMPIPGELLTLIGATGISYGMGLKHRFEVDVVGNIPAGLVPPVAPNTQLFSKLVGSAFTIAVVGFAIAISLGKIFALRHGYRVDSNQELVALGLSNLIGGIFQCFPVSCSMSRSLVQESTGGNSQVAGAISSLFILLIIVKLGELFHDLPKAVLAAIIIVNLKGMLRQLSDMRSLWKANRADLLIWLVTFTATILLNLDLGLVVAVIFSLLLVVVRTQMPHYSVLGQVPDTDIYRDVAEYSEAKEVRGVKVFRSSATVYFANAEFYSDALKQRCGVDVDFLISQKKKLLKKQEQLKLKQLQKEEKLRKQAASPKGASVSINVNTSLEDMRSNNVEDCKMMQVSSGDKMEDATANGQEDSKAPDGSTLKALGLPQPDFHSLILDLGALSFVDTVCLKSLKNIFHDFREIEVEVYMAACHSPVVSQLEAGHFFDASITKKHLFASVHDAVTFALQHPRPVPDSPVSVTRL
binding [2]: binds
